In PubChem BioAssay (NCATS):
The inconclusive results got no clear call from the source; some entries with a clear call stand among them for comparison. Where the call is inconclusive, the potency comes from a doubtful curve fit. Calls of active or inactive are those of the source. The call rests on the fitted dose curve; in most records, active means well fitted cell-killing curve with a large enough effect; inconclusive means small, poorly fitted or top-dose-only effect, or effect the other way; inactive means no such curve, though single readings can be large or run the other way.

Experiment: Quantitative High-Throughput drug screen in 47 multiple myeloma cell lines against the NCATS MIPE library collection: OCIMY5_PLB cell viability assay (AID 1918988); further: nearly all actives have a fitted effect of over 65% in size
Settings: OCI-MY5 myeloma viability, ATP luminescence, 48 h; viability, % of control: at 45.8 µM (top of the series)
Excerpt: PI: Beverly A. Mock Ph.D.
Laboratory of Cancer Biology and Genetics,
Center for Cancer Research, National Cancer Institute,
National Institute of Health, Bethesda, Maryland
Drug resistance and disease progression are common in multiple myeloma (MM) patients, underscoring the need for new therapeutic combinations. […] We hypothesized that effective combinations would reduce MYC expression and enhance p16 activity. […] These preclinical data identify potentially useful drug combinations for evaluation in drug-resistant MM and reveal potential mechanisms of combined drug sensitivity.
Described herein is the primary MIPE qHTS used to cherrypick compounds. Validated compounds were then further tested for potential synergistic activiy.
[1] Peat TJ, Gaikwad SM, Dubois W, Gyabaah-Kessie N, Zhang S, Gorjifard S, Phyo Z, Andres M, Hughitt VK, Simpson RM, Miller MA, Girvin AT, Taylor A, Williams D, D'Antonio N, Zhang Y, Rajagopalan A, Flietner E, Wilson K, Zhang X, Shinn P, Klumpp-Thomas C, McKnight C, Itkin Z, Chen L, Kazandijian D, Zhang J, Michalowski AM, Simmons JK, Keats J, Thomas CJ, Mock BA. Drug combinations identified by high-throughput screening promote cell cycle transition and upregulate Smad pathways in myeloma. Cancer Lett. 2023 Aug 1;568:216284. doi: 10.1016/j.canlet.2023.216284. Epub 2023 Jun 24. PMID: 37356470; PMCID: PMC10408729.
SEQUENCE No. (e.g., 1, 2, 3, etc.); […] (e.g., Cells, Incubation, Reagent, etc.); VALUE and DESCRIPTION.
1; Cells; 5 uL; white, solid bottom 1536-well Greiner assay plate.
2; Compounds; 23 nL; Kalypsis pin tool (Wako USA) equipped with a 1536-well pin head to transfer to the assay plates.
3; Incubation; 48 hours; 37C incubation.
4; Reagent;5uL; CellTiter Glo (Promega).
5; Detector; 425V; Luminescence; Viewlux PerkinElmer.
NOTES (numbers refer to Sequence numbers above)
1. The cell-based screening methods employed in this study were like those previously published. Briefly, the corresponding myeloma cell lines were screened in 1,536-well plates with 500 cells, 5-uL per well for inhibition of cell viability (assessed by measuring ATP levels with CellTiterGlo).
2. NCATS MIPE 4.0 library of approved and investigational drugs were added using the Kalypsis pin tool. Wells treated with DMSO only for 100% viability and media only for 0% viability were used as controls.
3. The assay plates were covered and incubated for 48 hours in a 37C, 5% CO2 incubator with controlled humidity.
4. After 48 hours, CellTilter-GloTM luminescent substrate mix (Promega) reagent was added to the assay plate and plates we incubated for 5 min at room temperature.
5. Signal was measured as median relative luminescence units on a ViewLux (PerkinElmer) multiplate reader.
[1] Heske CM, Davis MI, Baumgart JT, Wilson K, Gormally MV, Chen L, Zhang X, Ceribelli M, Duveau DY, Guha R, Ferrer M, Arnaldez FI, Ji J, Tran HL, Zhang Y, Mendoza A, Helman LJ, Thomas CJ. Matrix Screen Identifies Synergistic Combination of PARP Inhibitors and Nicotinamide Phosphoribosyltransferase (NAMPT) Inhibitors in Ewing Sarcoma. Clin Cancer Res. 2017 Dec 1;23(23):7301-7311. doi: 10.1158/1078-0432.CCR-17-1121. Epub 2017 Sep 12. PMID: 28899971; PMCID: PMC6636827.
Potency means the concentration at half of the fitted maximal effect.

With `COc1cc2c(cc1OC)C1CC(=O)C(CC(C)C)CN1CC2` (stereo not given) as the compound, how does the Potency read?
Its Potency is inconclusive: 14.8 µM [cytotoxic, partial curve, poor fit].

For `Clc1cccc(Cl)c1NC1=NCCN1`, which “viability, % of control” value is on record?
The value was inactive: 147%.

With `Cc1cccc(Nc2nc(N[C@@H]3CCCC[C@H]3N)ncc2C(N)=O)c1` as the compound, how does the Potency read?
The Potency was inconclusive: 23.5 µM [cytotoxic, partial curve, poor fit].

With `CCOc1cc(C(=O)Nc2ccc(Cl)c(-c3nc4ccccc4[nH]3)c2)cc(OCC)c1OCC` as the compound, how does the Potency read?
The Potency was inconclusive: 18.7 µM [cytotoxic, partial curve, poor fit].

Which “viability, % of control” value does the source give for `C[C@@H]1[C@H](C)CC[C@]2(C(=O)O)CC[C@]3(C)C(=CC[C@@H]4[C@@]5(C)C[C@@H](O)[C@H](O)[C@@](C)(CO)[C@H]5CC[C@]43C)[C@@H]12` here?
Its value is inactive: 165%.

With `COc1ccc2ccc(=O)oc2c1CC=C(C)C` as the compound, how does the Potency read?
Its Potency is active: 8.33 µM.

With `COc1ccc2nc(S(=O)Cc3ncc(C)c(OC)c3C)[nH]c2c1` (stereo not given) as the compound, how does the “viability, % of control” value read?
Its value is inactive: 141%.

For `CC(C=CC(=O)NO)=C[C@@H](C)C(=O)c1ccc(N(C)C)cc1`, which Potency is on record?
Its Potency is active: 0.166 µM.

With `COc1cc(C=CC(=O)O)ccc1O` as the compound, how does the “viability, % of control” value read?
The value was inactive: 168%.

With `O=c1ncn2nc(Sc3ccc(F)cc3F)ccc2c1-c1c(Cl)cccc1Cl` as the compound, how does the Potency read?
Its Potency is inconclusive: 0.001 µM [cytotoxic].

For `COc1cccc(Nc2c(C(N)=O)cnc3c(C)cc(S(=O)(=O)c4cccc(C(=O)N(C)C)c4)cc23)c1`, which Potency is on record?
Its Potency is inconclusive: 16.2 µM [cytotoxic, partial curve, poor fit].

Which “viability, % of control” value does the source give for `CCN(C)C(=O)Oc1cccc([C@H](C)N(C)C)c1` here?
The value was inactive: 166%.

With `Fc1ccc([C@@H]2CCNC[C@H]2COc2ccc3c(c2)OCO3)cc1` as the compound, how does the Potency read?
Its Potency is inconclusive: 13.2 µM [cytotoxic, partial curve, poor fit].

Which Potency does the source give for `C[C@@H]1CC=CC=CC=CC=C[C@@H](O[C@@H]2O[C@H](C)[C@@H](O)[C@H](N)[C@H]2O)C[C@@H]2O[C@](O)(C[C@@H](O)C[C@@H]3O[C@@H]3C=CC(=O)O1)C[C@H](O)[C@@H]2C(=O)O` here?
The Potency was active: 11.8 µM.

Which Potency does the source give for `COc1ccc2c(c1)c(CC(=O)O)c(C)n2C(=O)c1ccc(Cl)cc1` here?
Its Potency is inconclusive: 14.8 µM [cytotoxic, partial curve, poor fit].

With `Cn1cc(C[C@@H](N)C(=O)O)c2ccccc21` as the compound, how does the “viability, % of control” value read?
Its value is inactive: 162% [at 23.2 µM].

For `CCN(CC)CCNC(=O)c1ccc2nc(-c3ccccc3)c(-c3ccc(CN4CCC(n5c(=O)[nH]c6ccccc65)CC4)cc3)nc2c1`, which Potency is on record?
Its Potency is active: 10.5 µM.

Which Potency does the source give for `COc1cc2c(Nc3ccc(NC(=O)c4ccccc4)cc3)ncnc2cc1OCCCN1CCOCC1` here?
Its Potency is active: 18.7 µM.

With `Clc1ccc2c(N3CCN(CCCN4CCN(c5ccnc6cc(Cl)ccc56)CC4)CC3)ccnc2c1` as the compound, how does the Potency read?
Its Potency is inconclusive: 1.15 µM [cytotoxic, partial curve, poor fit].

For `Cn1cnc(-c2cc3nccc(Oc4ccc(NC(=S)NC(=O)Cc5ccccc5)cc4F)c3s2)c1`, which Potency is on record?
Its Potency is inconclusive: 20.9 µM [cytotoxic, partial curve, poor fit].

Which Potency does the source give for `O=C(O)c1ccc(O)c2ncc(N3CCOCC3)cc12` here?
The Potency was active: 13.2 µM.

Which Potency does the source give for `Nc1ccn(C2CO[C@H](CO)O2)c(=O)n1` (stereo not given in full) here?
The Potency was inconclusive: 4.18 µM [cytotoxic, full curve, poor fit].

Which Potency does the source give for `Cc1ccc2c(c1)c1c(n2CCc2ccc(C)nc2)CCN(C)C1` here?
The Potency was inconclusive: 23.5 µM [cytotoxic, single point].

Which Potency does the source give for `COCC(=O)NCC=Cc1ccc2ncnc(Nc3ccc(Oc4ccc(C)nc4)c(C)c3)c2c1` here?
Its Potency is inconclusive: 11.8 µM [cytotoxic, partial curve, poor fit].

With `CCCCCN(C)CCC(O)(P(=O)(O)O)P(=O)(O)O` as the compound, how does the Potency read?
Its Potency is inconclusive: 0.0042 µM [rising, full curve, poor fit].

Which “viability, % of control” value does the source give for `CCC1(C)CC(=O)NC1=O` (stereo not given) here?
The value was inactive: 163%.

Which “viability, % of control” value does the source give for `C1COC(NC(C2CC2)C2CC2)=N1` here?
The value was inactive: 134%.

Which “viability, % of control” value does the source give for `CCOc1cc(N)c(Cl)cc1C(=O)NCC1CN(Cc2ccc(F)cc2)CCO1` (stereo not given) here?
The value was inactive: 136%.

With `COc1cc(Nc2ncc3c(n2)-c2ccc(Cl)cc2C(c2c(F)cccc2OC)=NC3)ccc1C(=O)O` as the compound, how does the Potency read?
The Potency was inconclusive: 0.296 µM [cytotoxic, full curve, poor fit].

For `CN1CCN(c2ncc(-c3cc(Cl)cc(Cl)c3Cl)c(N)n2)CC1`, which “viability, % of control” value is on record?
Its value is inactive: 187%.

For `COc1cc(OC)c(NC(=O)Nc2cc(C)on2)cc1Cl`, which Potency is on record?
The Potency was inconclusive: 0.118 µM [rising, full curve, poor fit].

With `CC(C)(Oc1ccc(C2CC2(Cl)Cl)cc1)C(=O)O` (stereo not given) as the compound, how does the Potency read?
The Potency was inconclusive: 42.9 µM [cytotoxic, partial curve, poor fit].

With `FC(F)c1nc2ccccc2n1-c1nc(N2CCOCC2)nc(N2CCOCC2)n1` as the compound, how does the Potency read?
The Potency was active: 1.32 µM.

For `CN(C)CCN(Cc1ccc(Cl)cc1)c1ccccn1`, which Potency is on record?
The Potency was inconclusive: 14.8 µM [cytotoxic, partial curve, poor fit].

With `CC(C)[N+]1(C)[C@@H]2CC[C@H]1CC(OC(=O)C(CO)c1ccccc1)C2` (stereo not given in full) as the compound, how does the “viability, % of control” value read?
The value was inactive: 180%.

Which “viability, % of control” value does the source give for `COc1ccccc1-c1cccc(-c2c(O)c3cc(C#N)c(Cl)cc3[nH]c2=O)c1` here?
Its value is inactive: 140% [at 92.2 µM].

With `O=C(O)CCCc1c[nH]c2ccccc12` as the compound, how does the Potency read?
Its Potency is inconclusive: 0.118 µM [cytotoxic, full curve, poor fit].

For `Nc1nc(N)nc(-c2cc(Cl)ccc2Cl)n1`, which Potency is on record?
The Potency was inconclusive: 33.2 µM [cytotoxic, single point].

For `Cc1nnc(C(=O)NC(C)(C)c2nc(C(=O)NCc3ccc(F)cc3)c(O)c(=O)n2C)o1`, which Potency is on record?
The Potency was inconclusive: 0.0066 µM [rising, full curve, poor fit].

Which Potency does the source give for `COCCCOc1ccnc(CS(=O)c2nc3ccccc3[nH]2)c1C` (stereo not given) here?
Its Potency is inconclusive: 13.2 µM [cytotoxic, partial curve, poor fit].
